Reference: patent publication US11666561B2, “Compounds for use in regulating follicle maturation” (AARHUS UNIVERSITET, priority 2017, dated 2023)

Test system: primordial-to-primary follicle transition
Assay: In vitro organ culture of mouse ovaries with compound, H&E histology and counting of primordial, primary and secondary follicles
Conditions: 10 mM NCG, 96 hours; no statistical results
Experimental: Ovaries obtained from mice were washed twice with culture medium. Antagonists or agonists to be tested were dissolved in suitable solvents and added to the medium. As a control medium comprising solvent without the antagonist or agonist was used. One of the ovaries was cultured in a control medium and another was cultured with the antagonist or agonist. The tested antagonists or agonists and their concentrations are outlined in table 2.
Ovaries were incubated with antagonist at 37° C. and 5% CO2 for 24 and 96 hours, respectively (see table 3).
Cultures ovaries were fixed, embedded in paraffin and sliced microscopy. The sectioned ovaries were stained with hematoxylin and eosin (H&E) to visualize the morphology of the ovary by microscopy.
The number of primordial, primary and secondary follicles was determined, and it was determined whether the antagonist or agonist was capable of regulating folliculogenesis.
C57BL/6j×CBA F1 hybrid mice (Janvier Labs, France) were housed and bred in the animal facilities at Department of Biomedicine, Aarhus University. […]
The number of follicles at each developmental stage was counted using an inverted research microscope (DM14000B, Leica Microsystems, Germany). The follicles of every 3rd to 4th section of each ovary were counted and the distribution of follicles in the different stages in percentage was determined.

For `NC(=O)N[C@@H](CCC(=O)O)C(=O)O` [NCG, (2S)-2-(carbamoylamino)pentanedioic acid], the “shape of follicles and oocytes (morphology)” value was “follicles were very well shaped and oocytes were intact; also recorded: oocytes seemed to be more naturally shaped than any of the other treatment forms”.

“Also recorded” adds a separate entry of the source.
